Assay results as given in article PMC8184923.
Results are given in words; binding and its absence hold for the method and conditions named. Binding seen in cells or lysates may run through a third protein. Some binding calls cover weakened binding; strength is not graded here. Values belong to the binder of their own block, whether it stands above or below them.

By UniProt entry, the sequences of proteins in these tests, tags left out.
UniProt P23771: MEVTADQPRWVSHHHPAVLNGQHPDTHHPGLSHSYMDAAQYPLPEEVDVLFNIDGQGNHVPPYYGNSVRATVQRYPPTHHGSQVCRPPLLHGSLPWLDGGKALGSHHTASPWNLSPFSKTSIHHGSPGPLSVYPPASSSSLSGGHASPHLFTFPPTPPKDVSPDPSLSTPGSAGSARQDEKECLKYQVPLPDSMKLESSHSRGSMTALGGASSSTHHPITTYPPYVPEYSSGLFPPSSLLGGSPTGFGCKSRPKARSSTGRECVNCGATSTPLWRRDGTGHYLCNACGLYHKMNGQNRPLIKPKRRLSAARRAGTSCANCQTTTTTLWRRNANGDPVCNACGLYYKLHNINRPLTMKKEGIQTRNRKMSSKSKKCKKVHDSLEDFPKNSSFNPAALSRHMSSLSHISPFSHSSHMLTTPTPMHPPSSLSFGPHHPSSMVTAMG

Target: GATA binding protein 3 (GATA3) (human (endogenous in primary CD4+ T cells)) (UniProt P23771)
Experiment: co-IP; GATA3 antibody (16E10A23, Biolegend) on Protein G beads, incubated overnight at 4 °C with RIPA lysates of CD4+ T cells with or without hydroxyurea treatment; western blot

- binding: binds
B1: SOD3 (protein, UniProt P08294 19-240)
chain: WTGEDSAEPNSDSAEWIRDMYAKVTEIWQEVMQRRDDDGALHAACQVQPSATLDAAQPRVTGVVLFRQLAPRAKLDAFFALEGFPTEPNSSSRAIHVHQFGDLSQGCESTGPHYNPLAVPHPQHPGDFGNFAVRDGSLWRYRAGLAASLAGPHSIVGRAVVVHAGEDDLGRGGNQASVENGNAGRRLACCVVGVCGPGLWERQAREHSERKKRRRESECKAA

- binding: no binding
B2: NRF1 (protein, UniProt Q16656 1-503)
chain: MEEHGVTQTEHMATIEAHAVAQQVQQVHVATYTEHSMLSADEDSPSSPEDTSYDDSDILNSTAADEVTAHLAAAGPVGMAAAAAVATGKKRKRPHVFESNPSIRKRQQTRLLRKLRATLDEYTTRVGQQAIVLCISPSKPNPVFKVFGAAPLENVVRKYKSMILEDLESALAEHAPAPQEVNSELPPLTIDGIPVSVDKMTQAQLRAFIPEMLKYSTGRGKPGWGKESCKPIWWPEDIPWANVRSDVRTEEQKQRVSWTQALRTIVKNCYKQHGREDLLYAFEDQQTQTQATATHSIAHLVPSQTVVQTFSNPDGTVSLIQVGTGATVATLADASELPTTVTVAQVNYSAVADGEVEQNWATLQGGEMTIQTTQASEATQAVASLAEAAVAASQEMQQGATVTMALNSEAAAHAVATLAEATLQGGGQIVLSGETAAAVGALTGVQDANGLVQIPVSMYQTVVTSLAQGNGPVQVAMAPVTTRISDSAVTMDGQAVEVVTLEQ

- binding: binds
B3: nuclear factor erythroid 2-related factor 2 (NRF2) (protein, UniProt Q16236 1-605)
chain: MMDLELPPPGLPSQQDMDLIDILWRQDIDLGVSREVFDFSQRRKEYELEKQKKLEKERQEQLQKEQEKAFFAQLQLDEETGEFLPIQPAQHIQSETSGSANYSQVAHIPKSDALYFDDCMQLLAQTFPFVDDNEVSSATFQSLVPDIPGHIESPVFIATNQAQSPETSVAQVAPVDLDGMQQDIEQVWEELLSIPELQCLNIENDKLVETTMVPSPEAKLTEVDNYHFYSSIPSMEKEVGNCSPHFLNAFEDSFSSILSTEDPNQLTVNSLNSDATVNTDFGDEFYSAFIAEPSISNSMPSPATLSHSLSELLNGPIDVSDLSLCKAFNQNHPESTAEFNDSDSGISLNTSPSVASPEHSVESSSYGDTLLGLSDSEVEELDSAPGSVKQNGPKTPVHSSGDMVQPLSPSQGQSTHVHDAQCENTPEKELPVSPGHRKTPFTKDKHSSRLEAHLTRDELRAKALHIPFPVEKIINLPVVDFNEMMSKEQFNEAQLALIRDIRRRGKNKVAAQNCRKRKLENIVELEQDLDHLKDEKEKLLKEKGENDKSLHLLKKQLSTLYLEVFSMLRDEDGKPYSPSEYSLQQTRDGNVFLVPKSKKPDVKKN
